# Reference: PubChem BioAssay AID652272 (Drosophila RNAi Screening Center, 2013)
# Assay: 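Genome-wide knock-down search for components of Hedgehog signalling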 (primary screen)
# System: Drosophila clone 8 (Cl8) cells
# Knock-down reagent: long dsRNA against Drosophila genes
# Measured: 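Plate reader light from a firefly reporter under a ptc promoter fragment that responds to Hedgehog, with Renilla light as transfection reference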
# Scale: firefly Hh reporter signal: higher = more ptc reporter light; Renilla reference signal: higher = more Renilla control light
# Active means: 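Called a hit if the two-replicate mean z-score lies below -2 or above +3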
# Meaning of the calls: active = hit: reporter lowered or raised; inactive = not a hit
# The screen tested about 21,000 reagents; below is an unselected part of those with a known target gene and a result. Over the whole deposit, 503 (2.4%) are marked active. 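Raw plate light values, not normalised; calls rest on replicate z-scores that were not deposited; hits include reporter decreases as well as increases.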 A number with no mark means an inactive call. Names joined by + are all predicted targets of the reagent. The record does not give: the amount of reagent, the time to read-out.
gene,DRSC id,"firefly Hh reporter signal, replicate 1","firefly Hh reporter signal, replicate 2","firefly Hh reporter signal, replicate 3","Renilla reference signal, replicate 1","Renilla reference signal, replicate 2"
LKRSDH (Lysine ketoglutarate reductase/saccharopine dehydrogenase),DRSC03015,93792,72570,,3200,2941
Amy-p (Amylase proximal),DRSC06786,83479,36592,,2108,2621
CG15710,DRSC06581,66689,54115,,2032,4073
Dic4,DRSC10317,1.33e5,,,3322,2885
pnt (pointed),DRSC17028,5.24e5 (active),68057,,19541,1608
CG5835,DRSC15886,4.69e5,94165,,28528,1991
Cyp6a14 (Cytochrome P450 6a14),DRSC07376,75805,28835,,1872,2758
CG17234,DRSC00490,1.04e5,78986,,2667,1750
Cerk (Ceramide kinase),DRSC12285,1.15e5,1.19e5,,4528,4390
Psi (P-element somatic inhibitor),DRSC07519,1.07e5,77322,,2730,5766
tyf (twenty-four),DRSC18382,66101,1.37e5,,2080,5424
Septin5 (Septin 5),DRSC06843,58336,65419,,2534,2332
CG7582,DRSC16261,87114,87770,,2855,2360
CG15262,DRSC01975,68386,64390,,1739,5369
Ilp5 (Insulin-like peptide 5),DRSC08998,1.49e5,2.49e5,,4429,10800
CG8160,DRSC07086,1.92e5,8.51e5,1.12e5,4976,49945
CG8726,DRSC07250,76076,55008,,3378,2295
CG10681,DRSC09777,1.57e5,1.10e5,,7088,4976
RpS6 (Ribosomal protein S6),DRSC18712,24785 (active),25376,,1226,1211
ced-6,DRSC07591,1.85e5,75320,,4728,5808
tsl (torso-like),DRSC17090,9.72e5,1.58e5,,45403,2869
CG2336,DRSC12581,43000,93643,,1850,2618
CG6357,DRSC06979,1.06e5,77708,,4545,3031
glec (gliolectin),DRSC16958,8.12e5,1.58e5,,44018,2220
Miro (Mitochondrial Rho),DRSC15795,1.12e5,97507,,4258,3690
CG17048,DRSC06649,1.43e5,1.27e5,,4042,7995
maca,DRSC15738,58650,85911,,1024,2664
wupA (wings up A),DRSC20385,1.43e5,6.75e5,4.20e5,5659,6851
Vha55 (Vacuolar H[+]-ATPase 55kD subunit),DRSC16896,1.88e5,1.38e5,,7642,5405
CG4928,DRSC19342,67936,69180,,1600,1504
CG41099,DRSC21049,45046,1.79e5,,550,7504
CG41099,DRSC21051,59337,1.89e5,,1191,7840
ppk8 (pickpocket 8),DRSC17269,4.48e5,2.24e5,,25349,3460
CG3328,DRSC04357,96732,54032,,4257,2432
wol (wollknaeuel),DRSC03077,86800,92017,,3500,3968
CG3760,DRSC04415,6.26e5,1.07e5,,4954,4954
l(2)gl (lethal (2) giant larvae),DRSC00825,5.27e5,87696,,3788,3788
CG5262,DRSC11773,96595,73946,,4041,3516
Nop17l (Nop17 like),DRSC06556,1.02e5,43776,,4133,1924
MCU (Mitochondrial calcium uniporter),DRSC10339,78445,62716,,9473,3866
RpL22 (Ribosomal protein L22),DRSC18707,2.44e5 (active),1.20e5,2.11e5,1672,5080
Art8 (Arginine methyltransferase 8),DRSC02530,1.23e5,60352,,2829,5376
lectin-30A,DRSC02560,65821,31060,,2181,3035
CG17361,DRSC10266,54765,,,5107,2021
Ada2b (transcriptional Adaptor 2b),DRSC16531,1.07e5,1.59e5,,4465,4343
Sec23 (Secretory 23),DRSC12387,1.25e5,7.79e5,79620,4996,44822
CG10472,DRSC09730,1.10e5,1.00e5,,5005,3848
CG13855,DRSC14705,9.59e5,2.20e5,,48587,5607
CG11843,DRSC14401,1.30e5,1.01e5,,4854,2305
Gyc76C + CG42637,DRSC11180,76224,45623,,3089,2034
Eig71Eg (Ecdysone-induced gene 71Eg),DRSC11154,1.66e5,,,6117,4820
Irk2 (Inwardly rectifying potassium channel 2),DRSC15569,96613,91857,,4899,4338
CG4744,DRSC06887,72604,73958,,3682,3173
CG18249,DRSC15318,1.01e5,98981,,3901,4104
bru1 (bruno 1),DRSC01234,3.68e5,1.20e5,,16364,4749
bru1 (bruno 1),DRSC01236,4.38e5,89241,,20323,3922
bru1 (bruno 1),DRSC01237,5.22e5,2.54e5,,25559,10080
bru1 (bruno 1),DRSC01238,5.73e5,2.47e5,,27913,9741
bru1 (bruno 1),DRSC03485,65469,43734,,3079,1778

Reagents listed above called active, once more:
gene,DRSC id,"firefly Hh reporter signal, replicate 1","firefly Hh reporter signal, replicate 2","firefly Hh reporter signal, replicate 3","Renilla reference signal, replicate 1","Renilla reference signal, replicate 2"
pnt (pointed),DRSC17028,5.24e5 (active),68057,,19541,1608
RpS6 (Ribosomal protein S6),DRSC18712,24785 (active),25376,,1226,1211
RpL22 (Ribosomal protein L22),DRSC18707,2.44e5 (active),1.20e5,2.11e5,1672,5080
